Our source for the binding values is PMC4140012.

Amino acid sequences for entries named in this document (tags omitted).
UniProt O18413: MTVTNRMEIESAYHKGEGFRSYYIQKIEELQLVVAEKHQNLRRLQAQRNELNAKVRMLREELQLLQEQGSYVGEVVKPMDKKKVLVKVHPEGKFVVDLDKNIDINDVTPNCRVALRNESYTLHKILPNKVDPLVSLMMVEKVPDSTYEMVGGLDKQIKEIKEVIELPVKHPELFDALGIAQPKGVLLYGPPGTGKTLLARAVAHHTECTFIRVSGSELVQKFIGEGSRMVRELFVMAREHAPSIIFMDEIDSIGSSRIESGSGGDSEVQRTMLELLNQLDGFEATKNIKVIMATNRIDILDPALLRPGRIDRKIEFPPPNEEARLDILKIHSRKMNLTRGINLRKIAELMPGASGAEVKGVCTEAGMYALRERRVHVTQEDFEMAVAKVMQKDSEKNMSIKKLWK

Assay [1] has as its target T1, V5-tagged Imd full length (Drosophila) (UniProt Q7K4Z4).
T1 sequence: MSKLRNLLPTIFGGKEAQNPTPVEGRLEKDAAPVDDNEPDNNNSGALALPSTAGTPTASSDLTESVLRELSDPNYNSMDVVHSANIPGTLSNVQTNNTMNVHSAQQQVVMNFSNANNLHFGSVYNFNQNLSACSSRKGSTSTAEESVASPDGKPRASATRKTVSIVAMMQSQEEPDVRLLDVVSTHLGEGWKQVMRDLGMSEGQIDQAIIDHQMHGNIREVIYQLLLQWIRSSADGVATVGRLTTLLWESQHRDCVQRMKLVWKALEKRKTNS
Briefly: co-IP; S2 cells cotransfected with pAc-Imd-V5 and a control empty plasmid; anti-V5 IP, blot for endogenous Pros45.

Assay [2] concerns the target T1, V5-tagged Imd full length (Drosophila). Description: co-IP; S2 cells cotransfected with pAc-Imd-V5 and pAc-Usp2 (USP2 overexpressed); anti-V5 IP, blot for endogenous Pros45.

Results are given in words; binding and its absence hold for the method and conditions named. Binding seen in cells or lysates may run through a third protein. Some binding calls cover weakened binding; strength is not graded here. Where a sequence is shown, tags or fusion partners need not be part of it.

“proteasomal subunit 8 (Pros45) (from UniProt O18413 1-405)”: the results for the binding result in assay [1] and in assay [2] were “binds weakly” and “binds”, respectively.
